# Source: PubChem BioAssay AID1259284 (Sanger Institute, 2017)
# Test: 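Kinase genes needed for growth or acting with cancer drugs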 (primary screen)
# Cells: SW48 human colorectal cancer cells
# Reagent: siRNA pool against human genes
# Challenge: anchor drug BYL719 at 1 µM, cetuximab at 5 µg/ml or trametinib at 10 nM, or DMSO vehicle alone
# Measurement: 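Cell viability relative to non-targeting pool wells, replicate mean, with robust z-scores and drug synergy scores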
# Scale: robust z-score, no drug: higher = more cells survive knock-down; viability, no drug: higher = more viable cells; synergy with BYL719 and synergy with trametinib and synergy with cetuximab: higher = stronger combined killing with drug
# Active means: 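a knock-down is essential if viability without drug gives a robust z-score under -3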
# Meaning of the calls: active = essential without drug; inactive = no change without drug
# The deposit covers 794 reagents; shown is a part drawn at random. 16 of them (2%) count as active. 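Calls concern knock-down without drug only; drug synergy was judged apart, with scores above 0.15 taken as synergy.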 A number with no mark means an inactive call. Viability is capped at 1. Reagent sequences are not shown. The record does not give: the amount of reagent, the time to read-out.
gene,"robust z-score, no drug","viability, no drug (fraction of control)",synergy with BYL719,synergy with trametinib,synergy with cetuximab
MAP3K11,0.426,1,-0.153,0.017,-0.165
CDC73,0.426,1,-0.318,-0.0986,-0.165
EPHA3,-0.295,0.938,-0.094,0.0541,0.101
RAF1,0.426,1,-0.234,-0.00348,-0.165
MAP3K20,0.426,1,-0.367,-0.0993,-0.165
CDKN1B,0.426,1,-0.151,-0.0758,-0.108
ERBB2,0.426,1,-0.218,-0.115,-0.137
SIK2,-0.431,0.926,-0.211,-0.0317,-0.155
MERTK,0.426,1,-0.11,-0.213,-0.0313
STK39,-1.13,0.866,-0.18,-0.143,-0.109
ROCK2,0.426,1,-0.122,-0.0366,-0.129
NPR2,0.426,1,-0.18,0.000715,-0.0783
RIOK3,0.426,1,-0.0841,-0.0201,-0.0428
CAMK4,0.426,1,-0.26,-0.112,-0.165
PRKACA,0.426,1,-0.268,-0.207,-0.165
EFNB3,0.426,1,-0.05,-0.0466,0.0329
FES,0.426,1,-0.334,-0.193,-0.165
RUNX1,0.426,1,-0.0364,0.0993,-0.165
RPS6KA2,-0.0216,0.962,0.0394,0.18,0.134
DTYMK,0.426,1,0.0085,-0.0875,-0.0756
RPS6KC1,0.0528,0.968,-0.0479,-0.0619,0.0498
MAP3K3,0.426,1,-0.218,-0.116,-0.135
DYRK3,0.426,1,-0.154,-0.0347,-0.165
KHK,-0.291,0.939,-0.313,-0.105,-0.182
RNASEL,0.426,1,-0.304,-0.171,-0.1
TK2,-1.39,0.844,-0.157,-0.27,-0.133
PKDCC,0.426,1,-0.0973,0.0966,-0.086
ITSN1,0.426,1,-0.141,0.148,-0.0908
NEK10,0.426,1,-0.1,-0.118,0.000476
DDR1,0.426,1,-0.0997,0.0931,-0.122
ROCK1,0.426,1,-0.365,-0.108,-0.0553
GUCY2C,0.426,1,-0.286,-0.176,-0.165
BMP2K,-0.218,0.945,-0.0485,0.166,0.0326
CDK3,-0.00752,0.963,-0.144,-0.246,-0.0216

Ordered by “robust z-score, no drug” (high to low): 5 of the entries above.
gene,"robust z-score, no drug","viability, no drug (fraction of control)",synergy with BYL719,synergy with trametinib,synergy with cetuximab
MAP3K3,0.426,1,-0.218,-0.116,-0.135
DYRK3,0.426,1,-0.154,-0.0347,-0.165
RNASEL,0.426,1,-0.304,-0.171,-0.1
KHK,-0.291,0.939,-0.313,-0.105,-0.182
TK2,-1.39,0.844,-0.157,-0.27,-0.133
